Measured values as given in paper PMC10634346 (Cancer Research Communications, 2023).

System: SU-DHL-4 and SU-DHL-10 cell lines
Assay: RNA-seq differential gene expression in DLBCL cell lines
Assay type: cell-based, human
Protocol: Evaluation of the pharmacodynamic extent and duration of CDK9 inhibition were performed in vitro using the human DLBCL cell lines SU-DHL-4 and SU-DHL-10, harboring MYC amplification and MYC overexpression with P57T mutation, respectively. Cells were seeded 18 hours prior to treatment for 4 hours with one of three CDK9 inhibitors, enitociclib (0.25 and1 µmol/L), atuveciclib (1 µmol/L) or KB-0742 (1 µmol/L), cells were washed, and incubation continued until 48 hours posttreatment. Samples were collected before treatment (−4), immediately after treatment (0), and at 1, 2, 4, 8, 12, 16, 24, and 48 hours after washout for RNA sequencing (RNA-seq), qPCR, and Western blotting analyses. […] The integrity of purified total RNA was evaluated using an Agilent 2100 Bioanalyzer system and RNA 6000 Nano Kit (Agilent, #5067-1511). […] MYC and MCL1 mRNA levels were measured by qPCR in vitro and in vivo, using a Taqman qPCR system (Thermo Fisher Scientific), TaqMan Fast Universal PCR Master Mix (2X) no AmpErase (#4352042) and TaqMan probes for MYC (Hs00153408_m1) and MCL1 (Hs03043899_m1). RNA-seq data were analyzed using DESeq2 ([35]). RNA-seq data generated from the analysis of two cell lines treated with the three CDK9 inhibitors was analyzed to investigate the differences in gene expression levels between various posttreatment timepoints and the pretreatment samples. […]

Compound: COc1cc(F)ccc1-c1cc(Nc2cc(CS(C)(=N)=O)ccn2)ncc1F (centres unmarked) [enitociclib]
- share of DEGs downregulated (4 hours 250 nmol/L treatment (1,177/1,491)): 78.94%
- number of significantly DEGs (4 hours 250 nmol/L treatment, Padj ≤ 0.05, fold change ≥2): 1,491
